Experimental data taken from patent US10736872B1, “Pharmaceutical mixture to treat statin induced vascular calcification” (priority 2019, dated 2020).
At least one structure is not confirmed: it was looked up by name or label, or the drawing left a doubt.

System: human aortic smooth muscle cells (AoSMC)
Experiment: Alkaline phosphatase activity assay in AoSMC
Type: cell-based
Settings: 1 mcM statin, plain 5% FBS/DMEM, four days, FIG. 4A
Protocol: Alkaline phosphatase activity assay in AoSMC: AoSMC were plated in 96 well plates and grown to confluent layer. […] Cells were washed with phosphate buffered saline (PBS) and supplemented with 50 mcl/well 25 mcg/ml 4-MUP (fluorescent ALP substrate, Sigma) in alkaline buffer (Sigma)/1% Triton X100 for 1 h at room temperature. Fluorescence was measured at 360/450 nm.
Statistical analysis: Results in figures are means±standard deviation (SD) from three or more repetitions from the most representative of at least two independent experiments. Differences between samples were estimated with a two-tailed Student's t-test using Excel software (Microsoft) and accepted as significant at p levels less than 0.05. The results in FIGS. 4A and 4B and FIGS. 5A and 5B are expressed as percentage of supplemented controls and presented as means±SD from six or more repetitions from the most representative of at least two independent experiments.
The calcification process of AoSMC was evaluated by the activity of cellular alkaline phosphatase (ALP). The study assessed the effects of Mixture 1 (micronutrient combination containing ascorbate) and ascorbate individually under standard (5% FBS/DMEM) and pro-calcification conditions (5% FBS/DMEM supplemented with 5 mM beta-glycerophosphate (b-GP) and 25 mcM forskolin—FIG. 4B).

With `CCC(C)(C)C(=O)O[C@H]1C[C@@H](C)C=C2C=C[C@H](C)[C@H](CC[C@@H]3C[C@@H](O)CC(=O)O3)[C@H]21` [simvastatin] the “increase of ALP activity compared to control” value was “not affected”.
